Among the data in paper PMC12889096 (Microbiology Spectrum, 2025) are Kd values, retold here.

The chains behind the UniProt entries cited, without tags or fusion partners. Residues count along the entry.
UniProt P9WGK9, 302-519 limits assumed: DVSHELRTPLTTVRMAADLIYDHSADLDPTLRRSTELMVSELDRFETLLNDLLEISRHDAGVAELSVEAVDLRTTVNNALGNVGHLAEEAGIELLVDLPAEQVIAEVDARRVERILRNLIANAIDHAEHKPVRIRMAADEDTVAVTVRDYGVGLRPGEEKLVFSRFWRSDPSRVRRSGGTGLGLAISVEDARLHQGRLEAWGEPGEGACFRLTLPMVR
UniProt P71815, 181-485 limits assumed: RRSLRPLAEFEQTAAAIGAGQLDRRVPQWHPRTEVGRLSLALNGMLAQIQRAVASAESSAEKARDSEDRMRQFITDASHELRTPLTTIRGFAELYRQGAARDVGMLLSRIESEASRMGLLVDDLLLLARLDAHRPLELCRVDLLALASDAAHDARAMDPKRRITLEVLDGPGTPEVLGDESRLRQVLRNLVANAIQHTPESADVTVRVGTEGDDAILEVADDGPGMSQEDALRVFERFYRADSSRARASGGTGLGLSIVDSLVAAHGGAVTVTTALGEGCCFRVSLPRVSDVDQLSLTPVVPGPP

Assay [1] addresses MtrB histidine kinase (Mycobacterium tuberculosis, UniProt P9WGK9). The assay can be described thus: biochemical.
Assay [2] addresses PhoR histidine kinase (Mycobacterium tuberculosis, UniProt P71815). The assay can be described thus: biochemical.

In general, Kd refers to the concentration at which binding is half-saturated. High values mean a looser complex, low ones a tighter complex.

Take `CC/C(=C(\c1ccccc1)c1ccc(OCCN(C)C)cc1)c1ccccc1` [TAM, tamoxifen]: the figures for the Kd in assay [1] and in assay [2] were 412 ± 83 nM and 108 ± 44 nM, respectively.
